Data reported in the supplement of paper PMC10849652.
This is one part of the list.

Chains of the proteins cited; added tags and fusions are not shown. Lines headed by an entry give the natural chain unless they say otherwise; changes in a name come on top.
UniProt Q53EU6: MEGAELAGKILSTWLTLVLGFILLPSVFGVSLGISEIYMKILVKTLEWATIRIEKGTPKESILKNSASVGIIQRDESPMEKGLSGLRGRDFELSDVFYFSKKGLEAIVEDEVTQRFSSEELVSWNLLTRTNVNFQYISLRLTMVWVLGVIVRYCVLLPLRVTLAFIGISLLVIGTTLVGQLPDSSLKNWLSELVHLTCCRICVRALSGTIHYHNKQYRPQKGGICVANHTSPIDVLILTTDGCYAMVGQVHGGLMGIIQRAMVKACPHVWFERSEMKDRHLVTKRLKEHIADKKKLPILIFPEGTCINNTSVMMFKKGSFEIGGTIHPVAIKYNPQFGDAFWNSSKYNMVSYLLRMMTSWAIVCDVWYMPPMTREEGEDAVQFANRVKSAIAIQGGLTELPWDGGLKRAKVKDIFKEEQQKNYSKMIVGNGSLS
UniProt Q08378: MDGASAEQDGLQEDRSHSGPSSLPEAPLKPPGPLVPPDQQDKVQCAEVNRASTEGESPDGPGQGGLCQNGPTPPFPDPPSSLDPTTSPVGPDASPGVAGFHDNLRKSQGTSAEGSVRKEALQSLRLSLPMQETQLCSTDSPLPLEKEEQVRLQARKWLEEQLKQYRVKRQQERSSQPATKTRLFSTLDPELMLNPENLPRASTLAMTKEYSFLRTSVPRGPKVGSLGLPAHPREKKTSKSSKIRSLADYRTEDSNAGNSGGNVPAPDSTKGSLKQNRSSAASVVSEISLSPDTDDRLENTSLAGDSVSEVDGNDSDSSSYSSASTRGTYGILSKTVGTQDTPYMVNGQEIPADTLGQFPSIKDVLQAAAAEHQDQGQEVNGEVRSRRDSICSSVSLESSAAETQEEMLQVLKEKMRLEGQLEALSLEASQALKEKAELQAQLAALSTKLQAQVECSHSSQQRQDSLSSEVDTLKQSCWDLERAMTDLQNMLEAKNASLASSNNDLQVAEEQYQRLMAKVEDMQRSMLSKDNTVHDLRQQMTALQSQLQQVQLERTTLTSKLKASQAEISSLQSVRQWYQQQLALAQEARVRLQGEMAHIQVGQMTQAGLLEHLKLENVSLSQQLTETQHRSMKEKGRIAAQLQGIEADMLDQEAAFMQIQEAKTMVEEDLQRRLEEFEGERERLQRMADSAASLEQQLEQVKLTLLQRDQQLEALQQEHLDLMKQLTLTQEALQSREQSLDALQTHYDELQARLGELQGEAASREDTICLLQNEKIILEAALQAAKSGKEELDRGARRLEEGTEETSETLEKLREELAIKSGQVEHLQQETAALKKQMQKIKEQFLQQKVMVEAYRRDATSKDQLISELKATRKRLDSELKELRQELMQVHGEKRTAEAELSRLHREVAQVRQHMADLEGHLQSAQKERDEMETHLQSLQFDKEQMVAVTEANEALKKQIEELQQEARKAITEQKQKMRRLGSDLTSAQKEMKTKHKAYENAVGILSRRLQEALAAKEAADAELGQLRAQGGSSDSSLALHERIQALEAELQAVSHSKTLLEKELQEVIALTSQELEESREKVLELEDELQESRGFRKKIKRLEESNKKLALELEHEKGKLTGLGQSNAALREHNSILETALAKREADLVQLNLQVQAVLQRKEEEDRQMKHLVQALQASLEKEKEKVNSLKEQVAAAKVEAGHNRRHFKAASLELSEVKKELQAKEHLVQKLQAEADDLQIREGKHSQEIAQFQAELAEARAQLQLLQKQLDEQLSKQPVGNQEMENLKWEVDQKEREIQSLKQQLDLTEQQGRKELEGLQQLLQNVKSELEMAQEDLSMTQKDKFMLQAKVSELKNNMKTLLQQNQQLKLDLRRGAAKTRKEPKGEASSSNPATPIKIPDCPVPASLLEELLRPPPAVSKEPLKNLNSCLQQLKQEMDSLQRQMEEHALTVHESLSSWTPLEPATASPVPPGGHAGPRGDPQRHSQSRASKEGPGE
UniProt P49915: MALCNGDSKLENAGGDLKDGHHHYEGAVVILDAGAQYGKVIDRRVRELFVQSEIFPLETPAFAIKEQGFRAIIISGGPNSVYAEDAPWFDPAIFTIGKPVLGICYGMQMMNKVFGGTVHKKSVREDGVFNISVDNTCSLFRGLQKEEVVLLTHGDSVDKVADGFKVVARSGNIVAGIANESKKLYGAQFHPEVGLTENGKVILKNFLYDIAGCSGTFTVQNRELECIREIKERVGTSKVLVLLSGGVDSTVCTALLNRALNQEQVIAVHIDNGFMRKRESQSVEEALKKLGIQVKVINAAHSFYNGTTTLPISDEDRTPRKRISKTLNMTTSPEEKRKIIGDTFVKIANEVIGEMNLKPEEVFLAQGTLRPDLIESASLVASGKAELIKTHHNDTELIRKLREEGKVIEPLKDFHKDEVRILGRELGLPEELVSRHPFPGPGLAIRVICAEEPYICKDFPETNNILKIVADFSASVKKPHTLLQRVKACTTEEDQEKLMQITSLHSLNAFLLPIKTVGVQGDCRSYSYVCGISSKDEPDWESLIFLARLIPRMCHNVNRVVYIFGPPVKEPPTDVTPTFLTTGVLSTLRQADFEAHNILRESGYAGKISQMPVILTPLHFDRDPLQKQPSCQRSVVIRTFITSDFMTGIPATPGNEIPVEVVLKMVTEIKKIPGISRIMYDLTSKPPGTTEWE
UniProt O75496: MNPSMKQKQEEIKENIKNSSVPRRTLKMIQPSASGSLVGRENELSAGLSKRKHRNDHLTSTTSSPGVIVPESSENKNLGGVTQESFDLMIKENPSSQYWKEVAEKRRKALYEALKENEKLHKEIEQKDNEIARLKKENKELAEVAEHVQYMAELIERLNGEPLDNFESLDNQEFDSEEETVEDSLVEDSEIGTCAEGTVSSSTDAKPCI
UniProt Q92820: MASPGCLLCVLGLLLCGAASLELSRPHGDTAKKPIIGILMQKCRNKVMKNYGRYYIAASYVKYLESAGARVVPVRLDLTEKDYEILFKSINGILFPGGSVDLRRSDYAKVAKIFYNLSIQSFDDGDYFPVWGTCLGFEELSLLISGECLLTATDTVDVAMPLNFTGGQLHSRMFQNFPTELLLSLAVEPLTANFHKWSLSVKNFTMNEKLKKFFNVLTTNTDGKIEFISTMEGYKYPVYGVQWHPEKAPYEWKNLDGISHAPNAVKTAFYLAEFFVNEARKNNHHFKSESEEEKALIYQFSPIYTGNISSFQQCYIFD
UniProt Q13227: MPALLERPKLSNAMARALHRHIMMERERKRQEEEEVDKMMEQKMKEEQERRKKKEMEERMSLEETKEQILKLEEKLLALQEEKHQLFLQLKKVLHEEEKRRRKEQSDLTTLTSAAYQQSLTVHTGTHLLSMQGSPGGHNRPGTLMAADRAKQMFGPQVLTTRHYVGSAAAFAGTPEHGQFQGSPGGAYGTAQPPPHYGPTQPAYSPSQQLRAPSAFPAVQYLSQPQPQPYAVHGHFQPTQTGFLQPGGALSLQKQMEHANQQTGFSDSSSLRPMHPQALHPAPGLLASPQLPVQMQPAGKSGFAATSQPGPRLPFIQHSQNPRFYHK
UniProt P21695: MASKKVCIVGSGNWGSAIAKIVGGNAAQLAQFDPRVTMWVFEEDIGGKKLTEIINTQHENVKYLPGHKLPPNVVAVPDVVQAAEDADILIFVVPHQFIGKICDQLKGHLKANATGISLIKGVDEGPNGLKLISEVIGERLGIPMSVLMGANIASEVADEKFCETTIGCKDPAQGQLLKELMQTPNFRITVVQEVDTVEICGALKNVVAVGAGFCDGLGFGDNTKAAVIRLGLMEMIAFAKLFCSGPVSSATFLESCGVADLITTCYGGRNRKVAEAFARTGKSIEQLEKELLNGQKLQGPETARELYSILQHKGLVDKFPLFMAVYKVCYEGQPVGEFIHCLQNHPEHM
UniProt Q9Y3E0: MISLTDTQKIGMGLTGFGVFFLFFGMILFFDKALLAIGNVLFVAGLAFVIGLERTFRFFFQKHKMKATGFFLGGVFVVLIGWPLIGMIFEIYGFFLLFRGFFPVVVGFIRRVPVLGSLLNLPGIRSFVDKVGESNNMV
UniProt P29992, whole entry, looked up: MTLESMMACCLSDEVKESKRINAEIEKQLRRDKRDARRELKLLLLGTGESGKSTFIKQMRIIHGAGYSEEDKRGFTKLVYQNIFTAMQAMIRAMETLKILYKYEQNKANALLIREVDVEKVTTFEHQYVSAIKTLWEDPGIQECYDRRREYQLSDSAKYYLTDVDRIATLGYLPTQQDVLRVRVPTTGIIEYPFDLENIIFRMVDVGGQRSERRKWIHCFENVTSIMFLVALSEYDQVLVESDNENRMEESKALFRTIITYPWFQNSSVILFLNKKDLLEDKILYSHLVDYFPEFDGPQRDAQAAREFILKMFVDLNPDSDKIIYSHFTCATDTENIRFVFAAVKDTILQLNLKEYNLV
UniProt Q13439: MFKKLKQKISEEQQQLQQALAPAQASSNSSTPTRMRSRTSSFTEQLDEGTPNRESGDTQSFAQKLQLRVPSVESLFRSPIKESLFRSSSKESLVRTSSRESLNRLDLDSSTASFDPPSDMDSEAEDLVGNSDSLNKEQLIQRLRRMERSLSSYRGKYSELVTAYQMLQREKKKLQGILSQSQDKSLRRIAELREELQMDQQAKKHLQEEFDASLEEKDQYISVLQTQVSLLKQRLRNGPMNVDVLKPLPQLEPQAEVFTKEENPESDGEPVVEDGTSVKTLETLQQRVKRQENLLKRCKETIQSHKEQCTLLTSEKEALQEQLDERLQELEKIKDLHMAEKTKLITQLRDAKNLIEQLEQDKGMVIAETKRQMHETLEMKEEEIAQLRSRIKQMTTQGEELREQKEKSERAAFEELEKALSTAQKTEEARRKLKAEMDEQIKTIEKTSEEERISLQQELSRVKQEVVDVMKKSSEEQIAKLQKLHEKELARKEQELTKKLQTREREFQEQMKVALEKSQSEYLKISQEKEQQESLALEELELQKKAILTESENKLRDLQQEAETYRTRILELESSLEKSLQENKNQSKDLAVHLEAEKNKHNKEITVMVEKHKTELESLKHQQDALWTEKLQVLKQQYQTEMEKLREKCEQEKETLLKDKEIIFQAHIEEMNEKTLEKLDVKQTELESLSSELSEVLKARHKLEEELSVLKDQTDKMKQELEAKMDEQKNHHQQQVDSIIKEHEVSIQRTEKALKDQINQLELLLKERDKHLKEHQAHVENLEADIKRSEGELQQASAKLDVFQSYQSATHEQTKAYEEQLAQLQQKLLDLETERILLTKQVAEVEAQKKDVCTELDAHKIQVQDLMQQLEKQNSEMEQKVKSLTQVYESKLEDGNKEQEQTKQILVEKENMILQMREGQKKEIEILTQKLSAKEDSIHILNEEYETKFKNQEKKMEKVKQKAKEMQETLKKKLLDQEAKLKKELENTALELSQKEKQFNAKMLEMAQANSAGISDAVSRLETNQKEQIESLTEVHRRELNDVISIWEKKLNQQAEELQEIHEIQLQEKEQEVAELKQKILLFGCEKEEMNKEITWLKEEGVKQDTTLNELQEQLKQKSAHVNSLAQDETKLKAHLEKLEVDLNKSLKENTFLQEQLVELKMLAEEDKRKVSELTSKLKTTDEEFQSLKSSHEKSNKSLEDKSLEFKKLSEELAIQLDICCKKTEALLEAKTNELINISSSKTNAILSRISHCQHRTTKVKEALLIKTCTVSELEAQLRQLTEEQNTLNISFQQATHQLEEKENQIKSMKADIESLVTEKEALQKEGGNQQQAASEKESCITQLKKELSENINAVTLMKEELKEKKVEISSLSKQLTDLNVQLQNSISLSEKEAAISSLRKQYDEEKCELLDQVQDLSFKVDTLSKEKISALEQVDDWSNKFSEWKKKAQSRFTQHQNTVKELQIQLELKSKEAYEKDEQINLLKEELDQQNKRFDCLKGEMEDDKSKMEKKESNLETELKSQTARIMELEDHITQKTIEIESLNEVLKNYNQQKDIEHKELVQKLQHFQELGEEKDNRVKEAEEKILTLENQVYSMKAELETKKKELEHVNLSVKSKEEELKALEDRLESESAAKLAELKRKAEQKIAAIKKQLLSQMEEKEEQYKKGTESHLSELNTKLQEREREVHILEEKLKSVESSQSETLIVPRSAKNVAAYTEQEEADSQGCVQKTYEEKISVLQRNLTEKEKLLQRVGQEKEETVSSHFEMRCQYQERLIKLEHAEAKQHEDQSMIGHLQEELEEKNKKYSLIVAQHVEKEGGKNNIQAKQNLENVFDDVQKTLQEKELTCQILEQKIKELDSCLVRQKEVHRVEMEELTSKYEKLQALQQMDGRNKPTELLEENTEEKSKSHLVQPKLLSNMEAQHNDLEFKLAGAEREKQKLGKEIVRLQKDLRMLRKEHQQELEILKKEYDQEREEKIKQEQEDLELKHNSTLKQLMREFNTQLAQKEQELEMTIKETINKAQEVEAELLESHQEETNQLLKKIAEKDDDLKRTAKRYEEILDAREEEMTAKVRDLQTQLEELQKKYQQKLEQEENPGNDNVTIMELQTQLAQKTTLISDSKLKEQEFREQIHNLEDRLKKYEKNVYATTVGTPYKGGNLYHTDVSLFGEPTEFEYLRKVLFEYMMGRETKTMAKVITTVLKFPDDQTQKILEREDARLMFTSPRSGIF

Key:
Test in all cases: log2 fold change, soluble protein after heating vs DMSO (PISA); higher = thermal stabilisation; K562 lysate, 10 uM; active = over 0.2 and 3.5 SD of the protein, either way, in both replicates (recomputed)
vemurafenib = compound: CCCS(=O)(=O)Nc1ccc(F)c(C(=O)c2c[nH]c3ncc(-c4ccc(Cl)cc4)cc23)c1F [vemurafenib]
Procedure, shortened: (§1)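 Dounce homogenisation of K562 pellets in PBS pH 7.4 with 1 mM MgCl2 produced a crude extract, used at 1 mg/mL protein. Exposure to 10 μM compound lasted 30 min, and aliquots were then heated for 3 min across 48°C-58°C, pooled and brought to 0.5% NP-40 at 4°C. The supernatant after 21,000xg for 90 min was quantified by TMTpro 16plex LC-MS/MS with channel sums equalised. Duplicate values are given as log-two fold change in thermal stability relative to solvent controls.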

[1] = compound: CCCS(=O)(=O)Nc1ccc(F)c(C(=O)c2c[nH]c3ncc(Cl)cc23)c1F
Procedure, shortened: as §1

barasertib = compound: CCN(CCCOc1ccc2c(Nc3cc(CC(=O)Nc4cccc(F)c4)[nH]n3)ncnc2c1)CCOP(=O)(O)O [barasertib]
Procedure, shortened: as §1

[2] = compound: CC[C@@H]1C(=O)N(C)c2cnc(Nc3ccc(C(=O)NC4CCN(C)CC4)cc3OC)nc2N1C1CCCC1
Procedure, shortened: as §1

volasertib = compound: CC[C@@H]1C(=O)N(C)c2cnc(Nc3ccc(C(=O)N[C@H]4CC[C@H](N5CCN(CC6CC6)CC5)CC4)cc3OC)nc2N1C(C)C [volasertib]
Procedure, shortened: as §1

[3] = compound: CCn1c(C(=O)N(C2CC2)C2CC2)cc2c3c(ncn3C)c(Nc3cc(C)n(C)n3)nc21
Procedure, shortened: as §1

[4] = compound: CCn1cc(-c2ccnc3[nH]c(-c4cccc(CN(C)C)c4)cc23)c(-c2ccc(NC(=O)N(C)C)cc2)n1
Procedure, shortened: as §1

[5] = compound: CN1CCC(CNc2ccc3ncc(-c4cccc(OC(F)(F)F)c4)n3n2)CC1
Procedure, shortened: as §1

saracatinib = compound: CN1CCN(CCOc2cc(OC3CCOCC3)c3c(Nc4c(Cl)ccc5c4OCO5)ncnc3c2)CC1 [saracatinib]
Procedure, shortened: as §1

sotrastaurin = compound: CN1CCN(c2nc(C3=C(c4c[nH]c5ccccc45)C(=O)NC3=O)c3ccccc3n2)CC1 [sotrastaurin]
Procedure, shortened: as §1

Measured: log2 fold change

GMFB (UniProt P60983)
inactive: vemurafenib -0.079 | [1] -0.039 | barasertib 0.016 | [2] -0.023 | volasertib 0.045 | [3] 0.01 | [4] 0 | [5] 0.062 | saracatinib 0.002 | sotrastaurin -0.002

GPKOW (UniProt Q92917)
inactive: vemurafenib 0.02 | [1] 0.012 | barasertib -0.034 | [2] 0.02 | volasertib -0.035 | [3] 0.037 | [4] 0.102 | [5] -0.01 | saracatinib 0.016 | sotrastaurin 0.022

GID8 (UniProt Q9NWU2)
inactive: vemurafenib -0.016 | [1] 0.008 | barasertib 0.223 | [2] 0.04 | volasertib 0.022 | [3] 0.006 | [4] -0.017 | [5] -0.019 | saracatinib 0.01 | sotrastaurin 0.042

GPAT3 (UniProt Q53EU6)
inactive: vemurafenib 0.001 | [1] 0.004 | barasertib 0.122 | [2] 0.018 | volasertib 0.009 | [3] -0.015 | [4] -0.153 | [5] 0.037 | saracatinib 0.026 | sotrastaurin 0.02

GLIPR2 (UniProt Q9H4G4)
inactive: vemurafenib -0.062 | [1] -0.025 | barasertib -0.017 | [2] 0.024 | volasertib 0.001 | [3] 0.014 | [4] 0.045 | [5] -0.035 | saracatinib -0.058 | sotrastaurin 0.033

GOLGA3 (UniProt Q08378)
inactive: vemurafenib -0.007 | [1] 0.008 | barasertib -0.004 | [2] 0.043 | volasertib 0.011 | [3] -0.003 | [4] 0.004 | [5] 0.006 | saracatinib 0.006 | sotrastaurin -0.001

GNAI3 (UniProt P08754)
inactive: vemurafenib 0.108 | [1] -0.003 | barasertib 0.083 | [2] -0.044 | volasertib -0.035 | [3] -0.015 | [4] 0.016 | [5] 0.008 | saracatinib 0.098 | sotrastaurin 0.021

GLB1 (UniProt P16278)
inactive: vemurafenib -0.034 | [1] 0.012 | barasertib -0.029 | [2] 0.02 | volasertib -0.045 | [3] -0.017 | [4] -0.066 | [5] 0.019 | saracatinib -0.032 | sotrastaurin 0.043

GPAA1 (UniProt O43292)
inactive: vemurafenib 0.02 | [1] 0.025 | barasertib 0.045 | [2] 0.053 | volasertib -0.006 | [3] -0.014 | [4] -0.035 | [5] -0.026 | saracatinib 0.047 | sotrastaurin 0.044

GGCX (UniProt P38435)
inactive: vemurafenib -0.151 | [1] 0 | barasertib 0.099 | [2] -0.014 | volasertib -0.044 | [3] -0.146 | [4] -0.036 | [5] -0.145 | saracatinib 0.011 | sotrastaurin 0.059

GLRX5 (UniProt Q86SX6)
inactive: vemurafenib -0.005 | [1] 0.07 | barasertib 0.237 | [2] 0.088 | volasertib -0.001 | [3] -0.067 | [4] 0.031 | [5] -0.175 | saracatinib -0.127 | sotrastaurin 0.088

GON4L (UniProt Q3T8J9)
inactive: vemurafenib 0 | [1] 0.054 | barasertib 0.097 | [2] -0.064 | volasertib -0.018 | [3] 0.02 | [4] -0.104 | [5] -0.027 | saracatinib -0.019 | sotrastaurin 0.016

GPBP1 isoform 2 (UniProt Q86WP2)
inactive: vemurafenib -0.009 | [1] -0.057 | barasertib -0.019 | [2] 0.202 | volasertib 0.068 | [3] 0.016 | [4] -0.006 | [5] -0.004 | saracatinib 0.012 | sotrastaurin -0.079

GINS1 (UniProt Q14691)
inactive: vemurafenib -0.027 | [1] 0.01 | barasertib 0.04 | [2] 0.015 | volasertib -0.023 | [3] -0.003 | [4] 0.018 | [5] 0.015 | saracatinib -0.022 | sotrastaurin -0.005

GIGYF2 (UniProt Q6Y7W6)
inactive: vemurafenib -0.001 | [1] -0.017 | barasertib 0.049 | [2] 0.093 | volasertib -0.05 | [3] -0.001 | [4] 0.028 | [5] -0.055 | saracatinib 0.009 | sotrastaurin -0.001

GMPS (UniProt P49915)
inactive: vemurafenib -0.006 | [1] -0.011 | barasertib -0.008 | [2] -0.05 | volasertib -0.046 | [3] -0.011 | [4] 0.128 | [5] -0.047 | saracatinib 0.014 | sotrastaurin -0.005

GINS3 (UniProt Q9BRX5)
inactive: vemurafenib 0.002 | [1] -0.004 | barasertib 0.15 | [2] -0.05 | volasertib 0.011 | [3] 0.027 | [4] -0.017 | [5] 0.002 | saracatinib 0 | sotrastaurin -0.004

GMNN (UniProt O75496)
inactive: vemurafenib -0.007 | [1] 0.01 | barasertib -0.002 | [2] -0.01 | volasertib 0.019 | [3] 0.006 | [4] -0.055 | [5] 0.004 | saracatinib 0 | sotrastaurin -0.024

GGH (UniProt Q92820)
inactive: vemurafenib 0.017 | [1] -0.005 | barasertib -0.04 | [2] 0.021 | volasertib 0.044 | [3] 0.02 | [4] -0.166 | [5] 0.129 | saracatinib -0.006 | sotrastaurin -0.053

GPS2 (UniProt Q13227)
inactive: vemurafenib -0.09 | [1] 0.033 | barasertib -0.055 | [2] 0.064 | volasertib 0.085 | [3] 0.004 | [4] 0.052 | [5] 0.025 | saracatinib 0.093 | sotrastaurin 0.056

GLYR1 (UniProt Q49A26)
inactive: vemurafenib -0.059 | [1] 0.019 | barasertib 0.162 | [2] 0.045 | volasertib -0.005 | [3] 0.011 | [4] -0.088 | [5] 0.038 | saracatinib 0.05 | sotrastaurin 0.064

GMEB2 (UniProt Q9UKD1)
inactive: vemurafenib -0.004 | [1] 0.029 | barasertib 0.049 | [2] 0.078 | volasertib 0.039 | [3] -0.039 | [4] 0.058 | [5] 0.003 | saracatinib -0.003 | sotrastaurin -0.012

GPD1 (UniProt P21695)
inactive: vemurafenib 0.003 | [1] 0.065 | barasertib -0.007 | [2] 0.146 | volasertib 0.025 | [3] -0.206 | [4] -0.068 | [5] 0.025 | saracatinib -0.004 | sotrastaurin 0

GOLT1B (UniProt Q9Y3E0)
inactive: vemurafenib 0.128 | [1] 0.031 | barasertib 0.031 | [2] -0.037 | volasertib 0.029 | [3] 0.047 | [4] 0.049 | [5] -0.023 | saracatinib -0.008 | sotrastaurin 0.006

GLE1 (UniProt Q53GS7)
inactive: vemurafenib -0.035 | [1] -0.199 | barasertib 0.107 | [2] -0.002 | volasertib 0.048 | [3] 0.153 | [4] 0.155 | [5] -0.365 | saracatinib 0.019 | sotrastaurin 0.083

GNA11 (UniProt P29992)
inactive: vemurafenib 0.017 | [1] -0.003 | barasertib 0.031 | [2] -0.038 | volasertib 0.008 | [3] 0.005 | [4] -0.093 | [5] 0.062 | saracatinib -0.006 | sotrastaurin -0.018

GPATCH4 isoform 3 (UniProt Q5T3I0)
inactive: vemurafenib -0.024 | [1] 0.046 | barasertib 0.042 | [2] -0.05 | volasertib -0.02 | [3] 0 | [4] 0.156 | [5] -0.11 | saracatinib 0.014 | sotrastaurin -0.02

GOLGA4 isoform 5 (UniProt Q13439)
inactive: vemurafenib 0.026 | [1] 0.022 | barasertib 0.031 | [2] 0.048 | volasertib 0.006 | [3] -0.008 | [4] -0.028 | [5] 0.012 | saracatinib 0.021 | sotrastaurin -0.002

Seven consecutive records out of the list so far:
GGH (UniProt Q92820)
inactive: vemurafenib 0.017 | [1] -0.005 | barasertib -0.04 | [2] 0.021 | volasertib 0.044 | [3] 0.02 | [4] -0.166 | [5] 0.129 | saracatinib -0.006 | sotrastaurin -0.053

GPS2 (UniProt Q13227)
inactive: vemurafenib -0.09 | [1] 0.033 | barasertib -0.055 | [2] 0.064 | volasertib 0.085 | [3] 0.004 | [4] 0.052 | [5] 0.025 | saracatinib 0.093 | sotrastaurin 0.056

GLYR1 (UniProt Q49A26)
inactive: vemurafenib -0.059 | [1] 0.019 | barasertib 0.162 | [2] 0.045 | volasertib -0.005 | [3] 0.011 | [4] -0.088 | [5] 0.038 | saracatinib 0.05 | sotrastaurin 0.064

GMEB2 (UniProt Q9UKD1)
inactive: vemurafenib -0.004 | [1] 0.029 | barasertib 0.049 | [2] 0.078 | volasertib 0.039 | [3] -0.039 | [4] 0.058 | [5] 0.003 | saracatinib -0.003 | sotrastaurin -0.012

GPD1 (UniProt P21695)
inactive: vemurafenib 0.003 | [1] 0.065 | barasertib -0.007 | [2] 0.146 | volasertib 0.025 | [3] -0.206 | [4] -0.068 | [5] 0.025 | saracatinib -0.004 | sotrastaurin 0

GOLT1B (UniProt Q9Y3E0)
inactive: vemurafenib 0.128 | [1] 0.031 | barasertib 0.031 | [2] -0.037 | volasertib 0.029 | [3] 0.047 | [4] 0.049 | [5] -0.023 | saracatinib -0.008 | sotrastaurin 0.006

GLE1 (UniProt Q53GS7)
inactive: vemurafenib -0.035 | [1] -0.199 | barasertib 0.107 | [2] -0.002 | volasertib 0.048 | [3] 0.153 | [4] 0.155 | [5] -0.365 | saracatinib 0.019 | sotrastaurin 0.083

Continued:

GOLGB1 (UniProt Q14789)
inactive: vemurafenib -0.001 | [1] 0.003 | barasertib 0.004 | [2] 0.006 | volasertib 0.005 | [3] -0.007 | [4] 0.063 | [5] -0.037 | saracatinib 0.041 | sotrastaurin -0.012

GMPR2 isoform 2 (UniProt Q9P2T1)
inactive: vemurafenib 0.018 | [1] -0.019 | barasertib 0.003 | [2] -0.003 | volasertib 0.023 | [3] 0.011 | [4] 0.076 | [5] 0.037 | saracatinib -0.027 | sotrastaurin -0.007

GLMN (UniProt Q92990)
inactive: vemurafenib -0.009 | [1] -0.004 | barasertib -0.007 | [2] -0.003 | volasertib -0.018 | [3] 0.008 | [4] -0.031 | [5] 0.028 | saracatinib -0.022 | sotrastaurin 0.013
